This is one part of the list.

Amino acid sequences for entries named in this document (tags omitted). A change or cut given only in a name is not applied to a line headed by its entry.
UniProt Q9H1H9: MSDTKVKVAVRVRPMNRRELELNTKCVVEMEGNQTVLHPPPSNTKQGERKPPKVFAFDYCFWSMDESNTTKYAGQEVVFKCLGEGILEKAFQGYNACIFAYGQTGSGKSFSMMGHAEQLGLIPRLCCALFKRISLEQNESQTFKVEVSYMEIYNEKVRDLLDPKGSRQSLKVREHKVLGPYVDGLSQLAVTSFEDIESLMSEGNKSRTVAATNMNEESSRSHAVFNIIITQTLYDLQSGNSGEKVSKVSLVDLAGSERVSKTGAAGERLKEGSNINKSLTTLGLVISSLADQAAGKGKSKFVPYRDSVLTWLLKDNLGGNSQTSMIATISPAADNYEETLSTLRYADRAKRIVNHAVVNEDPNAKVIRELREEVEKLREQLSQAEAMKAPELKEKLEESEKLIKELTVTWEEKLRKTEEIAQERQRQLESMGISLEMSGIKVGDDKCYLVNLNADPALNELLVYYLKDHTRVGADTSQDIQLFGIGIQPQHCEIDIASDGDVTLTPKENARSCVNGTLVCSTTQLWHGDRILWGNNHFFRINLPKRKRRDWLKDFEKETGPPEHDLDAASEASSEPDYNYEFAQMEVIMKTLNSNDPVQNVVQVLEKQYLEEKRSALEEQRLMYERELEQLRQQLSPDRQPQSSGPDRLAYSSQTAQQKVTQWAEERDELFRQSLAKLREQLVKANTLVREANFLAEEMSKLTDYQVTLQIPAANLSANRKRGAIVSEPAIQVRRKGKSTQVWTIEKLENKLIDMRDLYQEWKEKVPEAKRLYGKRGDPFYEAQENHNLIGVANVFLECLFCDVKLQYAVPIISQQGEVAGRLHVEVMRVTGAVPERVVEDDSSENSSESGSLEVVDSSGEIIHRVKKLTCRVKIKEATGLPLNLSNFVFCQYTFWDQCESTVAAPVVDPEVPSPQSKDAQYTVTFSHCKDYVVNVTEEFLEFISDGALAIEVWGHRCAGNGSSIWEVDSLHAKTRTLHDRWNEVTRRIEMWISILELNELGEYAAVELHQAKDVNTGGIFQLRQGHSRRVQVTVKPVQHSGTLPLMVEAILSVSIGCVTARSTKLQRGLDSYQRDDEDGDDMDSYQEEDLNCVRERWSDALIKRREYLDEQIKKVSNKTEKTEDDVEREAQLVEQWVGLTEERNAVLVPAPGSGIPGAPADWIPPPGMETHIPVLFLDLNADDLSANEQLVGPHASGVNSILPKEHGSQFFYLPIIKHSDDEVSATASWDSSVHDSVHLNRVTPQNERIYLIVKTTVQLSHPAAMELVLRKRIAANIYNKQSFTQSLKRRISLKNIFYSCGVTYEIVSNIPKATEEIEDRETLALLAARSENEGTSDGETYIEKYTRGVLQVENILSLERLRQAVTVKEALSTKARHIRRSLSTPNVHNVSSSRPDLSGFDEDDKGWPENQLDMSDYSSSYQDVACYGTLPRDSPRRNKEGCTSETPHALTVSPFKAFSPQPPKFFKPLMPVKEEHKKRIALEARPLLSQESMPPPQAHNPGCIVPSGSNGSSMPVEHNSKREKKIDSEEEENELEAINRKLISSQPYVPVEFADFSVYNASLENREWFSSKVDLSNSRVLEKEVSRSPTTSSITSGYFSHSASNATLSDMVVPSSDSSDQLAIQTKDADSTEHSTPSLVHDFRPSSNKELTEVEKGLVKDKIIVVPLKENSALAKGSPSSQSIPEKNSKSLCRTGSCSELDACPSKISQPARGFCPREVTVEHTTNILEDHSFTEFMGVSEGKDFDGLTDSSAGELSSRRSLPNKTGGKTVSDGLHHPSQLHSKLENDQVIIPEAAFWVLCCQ
UniProt Q9P2K6: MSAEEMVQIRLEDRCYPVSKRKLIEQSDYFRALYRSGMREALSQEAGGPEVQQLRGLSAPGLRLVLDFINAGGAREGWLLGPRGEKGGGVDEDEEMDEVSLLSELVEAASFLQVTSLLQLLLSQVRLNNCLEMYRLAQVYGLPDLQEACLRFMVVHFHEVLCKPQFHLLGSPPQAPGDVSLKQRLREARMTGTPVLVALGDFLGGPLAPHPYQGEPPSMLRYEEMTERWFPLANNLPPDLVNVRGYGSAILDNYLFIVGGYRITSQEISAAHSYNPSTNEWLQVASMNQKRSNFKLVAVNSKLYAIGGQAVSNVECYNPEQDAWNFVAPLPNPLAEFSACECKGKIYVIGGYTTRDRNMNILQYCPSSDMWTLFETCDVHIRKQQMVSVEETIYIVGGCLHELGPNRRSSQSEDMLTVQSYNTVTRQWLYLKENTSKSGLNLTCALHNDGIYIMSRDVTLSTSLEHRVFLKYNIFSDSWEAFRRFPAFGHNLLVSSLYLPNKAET
UniProt Q15053: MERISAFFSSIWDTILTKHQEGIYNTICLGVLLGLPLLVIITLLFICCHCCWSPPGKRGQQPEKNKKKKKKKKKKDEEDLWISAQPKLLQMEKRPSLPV
UniProt Q03164, whole entry, looked up: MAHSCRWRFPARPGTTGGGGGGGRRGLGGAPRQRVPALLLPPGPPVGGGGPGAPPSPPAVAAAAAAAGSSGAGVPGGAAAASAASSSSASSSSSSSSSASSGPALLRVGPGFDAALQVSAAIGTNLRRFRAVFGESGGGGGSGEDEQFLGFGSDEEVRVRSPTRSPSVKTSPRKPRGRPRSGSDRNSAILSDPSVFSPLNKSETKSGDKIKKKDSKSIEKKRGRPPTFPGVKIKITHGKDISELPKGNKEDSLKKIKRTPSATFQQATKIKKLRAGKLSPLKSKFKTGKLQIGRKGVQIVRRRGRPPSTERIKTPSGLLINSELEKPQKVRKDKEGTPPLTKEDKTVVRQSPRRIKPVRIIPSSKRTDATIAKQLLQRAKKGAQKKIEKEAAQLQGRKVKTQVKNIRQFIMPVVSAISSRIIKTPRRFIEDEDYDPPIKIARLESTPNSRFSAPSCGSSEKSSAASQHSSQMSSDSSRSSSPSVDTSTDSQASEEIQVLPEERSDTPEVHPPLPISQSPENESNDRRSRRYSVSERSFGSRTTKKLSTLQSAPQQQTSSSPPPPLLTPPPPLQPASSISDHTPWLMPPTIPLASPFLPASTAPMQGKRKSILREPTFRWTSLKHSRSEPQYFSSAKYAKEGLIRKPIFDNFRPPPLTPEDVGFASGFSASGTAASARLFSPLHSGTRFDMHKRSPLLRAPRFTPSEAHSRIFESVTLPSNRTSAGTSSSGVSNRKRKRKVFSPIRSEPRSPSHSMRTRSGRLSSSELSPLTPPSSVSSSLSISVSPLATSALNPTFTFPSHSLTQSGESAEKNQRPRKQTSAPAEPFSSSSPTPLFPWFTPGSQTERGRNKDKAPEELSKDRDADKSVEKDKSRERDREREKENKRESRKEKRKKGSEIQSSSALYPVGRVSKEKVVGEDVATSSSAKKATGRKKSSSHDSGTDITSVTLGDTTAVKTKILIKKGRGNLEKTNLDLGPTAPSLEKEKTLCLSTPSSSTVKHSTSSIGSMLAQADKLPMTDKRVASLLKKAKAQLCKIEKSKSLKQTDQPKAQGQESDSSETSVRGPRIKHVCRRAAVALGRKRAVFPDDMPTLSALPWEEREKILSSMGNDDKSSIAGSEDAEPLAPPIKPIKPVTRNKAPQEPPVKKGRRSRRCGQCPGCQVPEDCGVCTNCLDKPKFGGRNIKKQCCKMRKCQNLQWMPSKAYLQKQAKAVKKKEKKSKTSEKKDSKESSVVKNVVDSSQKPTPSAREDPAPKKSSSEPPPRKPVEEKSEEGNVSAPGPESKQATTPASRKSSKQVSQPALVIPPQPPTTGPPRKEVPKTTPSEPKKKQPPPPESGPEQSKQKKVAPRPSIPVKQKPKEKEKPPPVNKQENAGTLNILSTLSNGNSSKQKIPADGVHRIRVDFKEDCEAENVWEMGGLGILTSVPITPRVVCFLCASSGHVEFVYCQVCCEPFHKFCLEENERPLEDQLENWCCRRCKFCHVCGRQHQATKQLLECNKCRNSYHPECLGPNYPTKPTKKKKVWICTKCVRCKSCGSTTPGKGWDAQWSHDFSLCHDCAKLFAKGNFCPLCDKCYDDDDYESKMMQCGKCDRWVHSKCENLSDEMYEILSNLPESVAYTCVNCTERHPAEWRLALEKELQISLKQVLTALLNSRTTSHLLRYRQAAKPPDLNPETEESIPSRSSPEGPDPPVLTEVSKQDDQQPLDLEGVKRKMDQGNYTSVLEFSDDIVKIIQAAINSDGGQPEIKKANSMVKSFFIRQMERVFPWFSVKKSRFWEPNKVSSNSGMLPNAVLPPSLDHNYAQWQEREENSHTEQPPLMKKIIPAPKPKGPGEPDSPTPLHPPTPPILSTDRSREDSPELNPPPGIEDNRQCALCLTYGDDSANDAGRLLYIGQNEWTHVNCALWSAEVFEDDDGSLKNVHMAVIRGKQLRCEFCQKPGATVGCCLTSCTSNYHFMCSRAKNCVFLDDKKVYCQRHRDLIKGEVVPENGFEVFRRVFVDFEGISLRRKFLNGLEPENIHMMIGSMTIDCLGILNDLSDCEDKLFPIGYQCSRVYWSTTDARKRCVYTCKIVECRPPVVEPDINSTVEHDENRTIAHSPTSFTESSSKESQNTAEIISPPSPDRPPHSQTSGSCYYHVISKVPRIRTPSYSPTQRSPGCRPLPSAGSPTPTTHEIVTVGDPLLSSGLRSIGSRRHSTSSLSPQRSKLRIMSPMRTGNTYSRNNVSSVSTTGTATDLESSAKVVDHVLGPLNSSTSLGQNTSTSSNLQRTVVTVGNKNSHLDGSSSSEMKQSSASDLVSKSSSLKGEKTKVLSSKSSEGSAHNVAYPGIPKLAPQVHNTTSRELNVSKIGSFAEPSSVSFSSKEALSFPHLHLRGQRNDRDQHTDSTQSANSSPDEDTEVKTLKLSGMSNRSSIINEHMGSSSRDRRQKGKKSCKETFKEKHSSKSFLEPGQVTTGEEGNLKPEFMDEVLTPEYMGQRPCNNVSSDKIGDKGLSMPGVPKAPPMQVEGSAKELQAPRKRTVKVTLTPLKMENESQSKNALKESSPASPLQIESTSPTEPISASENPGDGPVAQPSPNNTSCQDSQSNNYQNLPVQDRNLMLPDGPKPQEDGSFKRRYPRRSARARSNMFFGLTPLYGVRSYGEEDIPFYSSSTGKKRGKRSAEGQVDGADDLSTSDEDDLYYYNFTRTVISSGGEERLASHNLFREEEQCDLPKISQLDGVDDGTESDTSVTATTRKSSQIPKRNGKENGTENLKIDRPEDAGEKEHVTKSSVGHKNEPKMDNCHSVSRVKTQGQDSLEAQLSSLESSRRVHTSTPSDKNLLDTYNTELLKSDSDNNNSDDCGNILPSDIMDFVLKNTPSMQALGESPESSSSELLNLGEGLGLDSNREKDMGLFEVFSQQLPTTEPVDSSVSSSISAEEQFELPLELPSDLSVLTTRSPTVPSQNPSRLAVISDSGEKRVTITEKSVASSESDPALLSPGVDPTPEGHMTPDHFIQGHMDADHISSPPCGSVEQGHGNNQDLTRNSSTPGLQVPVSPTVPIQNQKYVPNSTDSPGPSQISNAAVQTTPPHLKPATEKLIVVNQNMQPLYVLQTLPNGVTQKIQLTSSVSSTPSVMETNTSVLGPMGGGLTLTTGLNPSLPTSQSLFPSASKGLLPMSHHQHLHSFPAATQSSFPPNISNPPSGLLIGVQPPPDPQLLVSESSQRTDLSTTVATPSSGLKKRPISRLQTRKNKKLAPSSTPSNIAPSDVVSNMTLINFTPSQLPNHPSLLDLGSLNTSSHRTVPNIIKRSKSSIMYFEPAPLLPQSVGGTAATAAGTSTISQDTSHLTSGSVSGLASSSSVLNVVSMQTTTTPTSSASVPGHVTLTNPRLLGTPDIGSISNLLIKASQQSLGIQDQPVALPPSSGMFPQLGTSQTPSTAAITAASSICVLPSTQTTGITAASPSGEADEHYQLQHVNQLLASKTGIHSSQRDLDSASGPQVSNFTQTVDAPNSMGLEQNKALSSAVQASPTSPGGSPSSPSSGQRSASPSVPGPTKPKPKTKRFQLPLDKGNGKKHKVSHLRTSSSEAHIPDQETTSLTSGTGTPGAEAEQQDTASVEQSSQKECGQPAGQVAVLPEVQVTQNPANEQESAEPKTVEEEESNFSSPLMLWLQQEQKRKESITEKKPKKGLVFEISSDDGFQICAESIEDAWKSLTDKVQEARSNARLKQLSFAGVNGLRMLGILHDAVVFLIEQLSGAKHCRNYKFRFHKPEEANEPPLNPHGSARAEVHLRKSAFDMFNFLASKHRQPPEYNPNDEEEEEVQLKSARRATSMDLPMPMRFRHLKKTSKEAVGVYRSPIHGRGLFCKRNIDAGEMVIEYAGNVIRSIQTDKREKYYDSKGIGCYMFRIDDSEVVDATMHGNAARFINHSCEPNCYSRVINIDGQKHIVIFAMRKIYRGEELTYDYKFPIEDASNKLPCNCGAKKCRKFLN

In the supplement of paper PMC10849652 one finds log2 fold change data, which are given here for 20 targets.

Compound in the experiment: Cn1cc(-c2ccc3c(c2)CCN3C(=O)Cc2cccc(C(F)(F)F)c2)c2c(N)ncnc21
The experiment can be described thus: log2 fold change, soluble protein after heating vs DMSO (PISA); higher = thermal stabilisation; K562 cells, 10 uM, 30 min; active = over 0.2 and 3.5 SD of the protein, either way, in both replicates (recomputed). The essentials:
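Thermal stability values are relative to control samples and come from duplicates. They are expressed as log2 fold changes. For measurement, K562 cells (2×10^6 cells/mL) received 10 μM compound for 30 min, and aliquots were heated for 3 min over 48°C-58°C, pooled, and extracted at 4°C in PBS with 0.5% NP-40. Soluble protein, the supernatant after 21,000xg for 90 min, was quantified by TMTpro 16plex LC-MS/MS with equalised channel sums.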
As for KIF14 (UniProt Q15058), the log2 fold change was inactive: -0.24. Regarding KIF13A isoform 4 (UniProt Q9H1H9), the log2 fold change was inactive: 0.069.

For KIZ (UniProt Q2M2Z5), the log2 fold change was inactive: -0.446. As to KIF1C (UniProt O43896), the log2 fold change is inactive: 0.236.

Consider JOSD1 (UniProt Q15040), for which the log2 fold change is inactive: -0.117. As to KLHL42 (UniProt Q9P2K6), the log2 fold change was inactive: 0.117. KMT2E (UniProt Q8IZD2): the log2 fold change is inactive: -0.006. Turning to KATNBL1 (UniProt Q9H079), the log2 fold change was inactive: -0.065. In the case of KDF1 (UniProt Q8NAX2), the log2 fold change is inactive: -0.165.

As for KCNH2 (UniProt Q12809), the log2 fold change was inactive: -0.217. On to KDM3A (UniProt Q9Y4C1), for which the log2 fold change was inactive: 0.095.

For the target KNL1 (UniProt Q8NG31), the log2 fold change is inactive: 0.151.

In the case of KIFC1 (UniProt Q9BW19), the log2 fold change is inactive: -0.072. For KIF4A (UniProt O95239) the value was inactive: -0.078; for KDM6A (UniProt O15550), inactive: -0.062; for KIAA1755 (UniProt Q5JYT7), inactive: 0.144.

For the target KIAA0040 (UniProt Q15053), the log2 fold change is inactive: -0.034. For KIF16B isoform 2 (UniProt Q96L93), the log2 fold change was inactive: 0.019. The same measure for KATNAL1 (UniProt Q9BW62): inactive: 0.153; for KMT2A isoform 3 (UniProt Q03164): inactive: 0.122.
